Data as given in PubChem BioAssay AID1259405 (NCATS, 2018).
Aim: 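Knock-downs that lift recombinant protein yield in hamster ovary cells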 (primary screen). Cell system: Chinese hamster CHO-K1 ovary cells with stable secreted eGFP expression. Reagents: single siRNA against mouse genes, 0.8 pmol siRNA per well (2 µl of 400 nM stock). Duration: 3 days. Detection: 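Per-well intracellular GFP measured by laser scanning cytometry, plus viability from ATP luminescence, each relative to plate median of non-targeting control wells, in %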. Direction: GFP, % of control: higher = more GFP per well, higher productivity; viability (ATP), % of control: higher = more viable cells (more ATP). Active means: 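a knock-down is called active if GFP reaches 120% or more of non-targeting control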.
The whole screen tested about 50,000 reagents; below is a part drawn at random. About 4,000 of them (8%) were called active. 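Mouse siRNA library applied to hamster cells; one well for each siRNA.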 Unmarked entries are inactive.

The opening 5 records as a preview:
| target | PubChem SID | GFP, % of control | viability (ATP), % of control |
| --- | --- | --- | --- |
| Rpl9 (ribosomal protein L9) | SID363554050 | 84 | 97.9 |
| Rpl9 (ribosomal protein L9) | SID363562007 | 52.8 | 36.7 |
| Rpl9 (ribosomal protein L9) | SID363565745 | 24.3 | 18 |
| Pnpla7 (patatin-like phospholipase domain containing 7) | SID363545760 | 74.4 | 64.6 |
| Pnpla7 (patatin-like phospholipase domain containing 7) | SID363549273 | 92.1 | 100 |

The listing, repeating the preview:
| target | PubChem SID | GFP, % of control | viability (ATP), % of control |
| --- | --- | --- | --- |
| Rpl9 (ribosomal protein L9) | SID363554050 | 84 | 97.9 |
| Rpl9 (ribosomal protein L9) | SID363562007 | 52.8 | 36.7 |
| Rpl9 (ribosomal protein L9) | SID363565745 | 24.3 | 18 |
| Pnpla7 (patatin-like phospholipase domain containing 7) | SID363545760 | 74.4 | 64.6 |
| Pnpla7 (patatin-like phospholipase domain containing 7) | SID363549273 | 92.1 | 100 |
| Pnpla7 (patatin-like phospholipase domain containing 7) | SID363563079 | 85.5 | 79.3 |
| Zkscan5 (zinc finger with KRAB and SCAN domains 5) | SID363541061 | 44.6 | 46.7 |
| Zkscan5 (zinc finger with KRAB and SCAN domains 5) | SID363555688 | 101 | 106 |
| Zkscan5 (zinc finger with KRAB and SCAN domains 5) | SID363565977 | 105 | 79.9 |
| Togaram1 (TOG array regulator of axonemal microtubules 1) | SID363542769 | 120 | 61.3 |
| Togaram1 (TOG array regulator of axonemal microtubules 1) | SID363546286 | 69.3 | 71.6 |
| Togaram1 (TOG array regulator of axonemal microtubules 1) | SID363548042 | 92.2 | 81.3 |
| Chfr (checkpoint with forkhead and ring finger domains) | SID363550054 | 76.2 | 85.7 |
| Chfr (checkpoint with forkhead and ring finger domains) | SID363564563 | 51 | 64 |
| Chfr (checkpoint with forkhead and ring finger domains) | SID363588108 | 70.2 | 76 |
| Inka1 (inka box actin regulator 1) | SID363552436 | 58.9 | 62.8 |
| Inka1 (inka box actin regulator 1) | SID363585572 | 85.8 | 85.1 |
| Inka1 (inka box actin regulator 1) | SID363585923 | 73.1 | 105 |
| Pomk (protein-O-mannose kinase) | SID363542455 | 120 | 106 |
| Pomk (protein-O-mannose kinase) | SID363551946 | 121 (active) | 94.7 |
| Pomk (protein-O-mannose kinase) | SID363559551 | 163 (active) | 145 |
| Ywhab | SID363573154 | 53.2 | 60.3 |
| Ywhab | SID363577730 | 41.2 | 40.3 |
| Ywhab | SID363581250 | 43.8 | 63.9 |
| Papss2 (3'-phosphoadenosine 5'-phosphosulfate synthase 2) | SID363547248 | 79.8 | 99.3 |
| Papss2 (3'-phosphoadenosine 5'-phosphosulfate synthase 2) | SID363558017 | 82.6 | 50.2 |
| Papss2 (3'-phosphoadenosine 5'-phosphosulfate synthase 2) | SID363559775 | 75 | 81 |
| Dnase1l3 (deoxyribonuclease 1-like 3) | SID363569903 | 76.4 | 77.3 |
| Dnase1l3 (deoxyribonuclease 1-like 3) | SID363576943 | 110 | 103 |
| Dnase1l3 (deoxyribonuclease 1-like 3) | SID363578351 | 57.1 | 51 |
| Smc2 (structural maintenance of chromosomes 2) | SID363568993 | 49.3 | 73.6 |
| Smc2 (structural maintenance of chromosomes 2) | SID363583425 | 108 | 100 |
| Xrcc2 (X-ray repair complementing 2) | SID363569252 | 117 | 97.3 |
| Xrcc2 (X-ray repair complementing 2) | SID363583684 | 67.2 | 79 |
| Rptn (repetin) | SID363554894 | 116 | 98 |
| Rptn (repetin) | SID363568341 | 85.1 | 37.9 |
| Rptn (repetin) | SID363586400 | 56.6 | 79.1 |
| Bacc1 (BPTF associated chromatin complex component 1) | SID363545813 | 111 | 102 |
| Bacc1 (BPTF associated chromatin complex component 1) | SID363549326 | 107 | 78.6 |
| Bacc1 (BPTF associated chromatin complex component 1) | SID363563132 | 50.9 | 42.5 |
| Nfya (nuclear transcription factor-Y alpha) | SID363573794 | 54.9 | 84.8 |
| Nfya (nuclear transcription factor-Y alpha) | SID363581538 | 69.8 | 64.5 |
| Nfya (nuclear transcription factor-Y alpha) | SID363584002 | 74.7 | 111 |
| Chil4 (chitinase-like 4) | SID363545594 | 86.7 | 97 |
| Chil4 (chitinase-like 4) | SID363549107 | 96.2 | 74.3 |
| Chil4 (chitinase-like 4) | SID363562913 | 101 | 94.6 |
| Iffo2 (intermediate filament family orphan 2) | SID363550079 | 98.2 | 92 |
| Iffo2 (intermediate filament family orphan 2) | SID363564588 | 73 | 64.1 |
| Iffo2 (intermediate filament family orphan 2) | SID363588133 | 95.3 | 73.2 |
| Chmp1b (charged multivesicular body protein 1B) | SID363553789 | 51.4 | 74.1 |
| Chmp1b (charged multivesicular body protein 1B) | SID363561746 | 69.9 | 75.5 |
| Chmp1b (charged multivesicular body protein 1B) | SID363565484 | 128 (active) | 34.4 |
| Pagr1a (PAXIP1 associated glutamate rich protein 1A) | SID363543744 | 66.7 | 67.7 |
| Pagr1a (PAXIP1 associated glutamate rich protein 1A) | SID363551480 | 32.2 | 19.3 |
| Pagr1a (PAXIP1 associated glutamate rich protein 1A) | SID363559085 | 75.4 | 44.4 |
| Coro1a (coronin, actin binding protein 1A) | SID363572260 | 24.4 | 34.5 |
| Coro1a (coronin, actin binding protein 1A) | SID363574020 | 81.7 | 71.3 |
| Prnp (prion protein) | SID363554985 | 77.4 | 70.5 |
| Prnp (prion protein) | SID363568432 | 65.7 | 65.8 |
| Prnp (prion protein) | SID363586491 | 72.6 | 79.4 |
| Etaa1 (Ewing tumor-associated antigen 1) | SID363552172 | 119 | 87.5 |
| Etaa1 (Ewing tumor-associated antigen 1) | SID363585308 | 74.5 | 69.5 |
| Etaa1 (Ewing tumor-associated antigen 1) | SID363585659 | 119 | 115 |
| Higd1b (HIG1 domain family, member 1B) | SID363543379 | 95.8 | 100 |
| Higd1b (HIG1 domain family, member 1B) | SID363552872 | 43.9 | 51.1 |
| Higd1b (HIG1 domain family, member 1B) | SID363558720 | 98 | 67.7 |
| Eps15 (EGFR pathway substrate 15) | SID363570351 | 123 (active) | 120 |
| Eps15 (EGFR pathway substrate 15) | SID363576687 | 115 | 88.8 |
| Eps15 (EGFR pathway substrate 15) | SID363579855 | 79 | 82.3 |
| Aox2 (aldehyde oxidase 2) | SID363540260 | 69 | 95.8 |
| Aox2 (aldehyde oxidase 2) | SID363542012 | 40.6 | 31.7 |
| Aox2 (aldehyde oxidase 2) | SID363566928 | 66.9 | 85.3 |
| Cpeb4 (cytoplasmic polyadenylation element binding protein 4) | SID363569460 | 85.8 | 82.9 |
| Cpeb4 (cytoplasmic polyadenylation element binding protein 4) | SID363577204 | 94.6 | 67.2 |
| Cpeb4 (cytoplasmic polyadenylation element binding protein 4) | SID363578612 | 69.5 | 75.2 |
| Icosl (icos ligand) | SID363540219 | 67.6 | 81.4 |
| Icosl (icos ligand) | SID363541971 | 80.6 | 80.4 |
| Icosl (icos ligand) | SID363566887 | 63.9 | 95.2 |
| Nmrk1 (nicotinamide riboside kinase 1) | SID363547351 | 146 (active) | 134 |
| Nmrk1 (nicotinamide riboside kinase 1) | SID363558120 | 58.2 | 55.1 |
| Nmrk1 (nicotinamide riboside kinase 1) | SID363559878 | 111 | 63.7 |
| Acot13 (acyl-CoA thioesterase 13) | SID363570238 | 79.1 | 99.4 |
| Acot13 (acyl-CoA thioesterase 13) | SID363576574 | 72 | 80 |
| Acot13 (acyl-CoA thioesterase 13) | SID363579742 | 56.5 | 59.8 |
